This assay deals with FAK fused to the promiscuous mutated biotin ligase BirA* (FAK-BirA*) (UniProt P34152). Put plainly: proximity labelling.

Chains of the proteins cited; added tags and fusions are not shown. Lines headed by an entry give the natural chain unless they say otherwise; changes in a name come on top.
UniProt P34152: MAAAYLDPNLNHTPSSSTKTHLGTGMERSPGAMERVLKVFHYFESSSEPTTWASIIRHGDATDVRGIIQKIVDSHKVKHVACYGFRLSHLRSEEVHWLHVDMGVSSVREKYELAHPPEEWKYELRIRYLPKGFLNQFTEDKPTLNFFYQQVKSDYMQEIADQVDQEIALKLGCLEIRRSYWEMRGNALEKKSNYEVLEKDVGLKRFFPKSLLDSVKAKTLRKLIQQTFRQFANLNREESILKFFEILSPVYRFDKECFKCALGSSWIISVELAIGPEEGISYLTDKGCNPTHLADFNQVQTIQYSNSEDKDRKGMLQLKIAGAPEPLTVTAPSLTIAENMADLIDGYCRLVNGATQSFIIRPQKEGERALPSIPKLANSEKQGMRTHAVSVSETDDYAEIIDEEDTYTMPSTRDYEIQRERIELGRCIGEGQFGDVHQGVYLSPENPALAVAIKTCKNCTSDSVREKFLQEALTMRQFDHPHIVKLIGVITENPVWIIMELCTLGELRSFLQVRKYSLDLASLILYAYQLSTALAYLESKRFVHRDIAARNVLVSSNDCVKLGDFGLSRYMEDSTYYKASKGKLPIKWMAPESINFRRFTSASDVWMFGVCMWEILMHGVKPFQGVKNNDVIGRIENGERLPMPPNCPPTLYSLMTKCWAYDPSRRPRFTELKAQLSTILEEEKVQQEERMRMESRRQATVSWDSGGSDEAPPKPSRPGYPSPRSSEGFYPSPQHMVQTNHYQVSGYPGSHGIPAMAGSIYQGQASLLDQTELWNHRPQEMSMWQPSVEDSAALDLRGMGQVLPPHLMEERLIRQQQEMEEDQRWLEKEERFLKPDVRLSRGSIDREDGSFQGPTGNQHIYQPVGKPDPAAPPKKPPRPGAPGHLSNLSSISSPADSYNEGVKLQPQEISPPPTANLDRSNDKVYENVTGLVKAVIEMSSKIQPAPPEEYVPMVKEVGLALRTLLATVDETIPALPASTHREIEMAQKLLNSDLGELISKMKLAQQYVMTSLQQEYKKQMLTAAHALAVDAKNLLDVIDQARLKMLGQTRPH
UniProt Q62219: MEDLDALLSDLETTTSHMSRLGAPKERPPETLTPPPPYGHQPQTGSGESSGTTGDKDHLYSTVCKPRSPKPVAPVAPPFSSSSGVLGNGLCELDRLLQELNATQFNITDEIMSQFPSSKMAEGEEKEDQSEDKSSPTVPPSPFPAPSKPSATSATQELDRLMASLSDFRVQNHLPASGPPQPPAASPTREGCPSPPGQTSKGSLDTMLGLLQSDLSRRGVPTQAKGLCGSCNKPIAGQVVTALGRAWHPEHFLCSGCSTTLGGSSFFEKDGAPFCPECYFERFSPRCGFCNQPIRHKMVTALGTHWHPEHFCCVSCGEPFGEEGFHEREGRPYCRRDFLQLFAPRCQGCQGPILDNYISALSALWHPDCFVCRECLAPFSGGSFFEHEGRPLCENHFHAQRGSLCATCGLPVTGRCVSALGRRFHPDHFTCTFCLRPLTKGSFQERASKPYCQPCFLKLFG

Experimental findings from doi:10.1101/2021.08.31.458428 are described below.

No constants are given. Whether binding was seen depends on the method and setting. In cells and extracts the contact can be indirect. These calls come from enrichment with a bait or labelling near it, and not all partners need be listed.

As for Hic-5 (from UniProt Q62219 1-461), the binding result is reported as “binds”.
